In PMC9511706:
Results are given in words; binding and its absence hold for the method and conditions named. Binding seen in cells or lysates may run through a third protein. Some entries that bind do so weakly or less than the wild type.

Amino acid sequences for entries named in this document (tags omitted).
UniProt Q7TMB8: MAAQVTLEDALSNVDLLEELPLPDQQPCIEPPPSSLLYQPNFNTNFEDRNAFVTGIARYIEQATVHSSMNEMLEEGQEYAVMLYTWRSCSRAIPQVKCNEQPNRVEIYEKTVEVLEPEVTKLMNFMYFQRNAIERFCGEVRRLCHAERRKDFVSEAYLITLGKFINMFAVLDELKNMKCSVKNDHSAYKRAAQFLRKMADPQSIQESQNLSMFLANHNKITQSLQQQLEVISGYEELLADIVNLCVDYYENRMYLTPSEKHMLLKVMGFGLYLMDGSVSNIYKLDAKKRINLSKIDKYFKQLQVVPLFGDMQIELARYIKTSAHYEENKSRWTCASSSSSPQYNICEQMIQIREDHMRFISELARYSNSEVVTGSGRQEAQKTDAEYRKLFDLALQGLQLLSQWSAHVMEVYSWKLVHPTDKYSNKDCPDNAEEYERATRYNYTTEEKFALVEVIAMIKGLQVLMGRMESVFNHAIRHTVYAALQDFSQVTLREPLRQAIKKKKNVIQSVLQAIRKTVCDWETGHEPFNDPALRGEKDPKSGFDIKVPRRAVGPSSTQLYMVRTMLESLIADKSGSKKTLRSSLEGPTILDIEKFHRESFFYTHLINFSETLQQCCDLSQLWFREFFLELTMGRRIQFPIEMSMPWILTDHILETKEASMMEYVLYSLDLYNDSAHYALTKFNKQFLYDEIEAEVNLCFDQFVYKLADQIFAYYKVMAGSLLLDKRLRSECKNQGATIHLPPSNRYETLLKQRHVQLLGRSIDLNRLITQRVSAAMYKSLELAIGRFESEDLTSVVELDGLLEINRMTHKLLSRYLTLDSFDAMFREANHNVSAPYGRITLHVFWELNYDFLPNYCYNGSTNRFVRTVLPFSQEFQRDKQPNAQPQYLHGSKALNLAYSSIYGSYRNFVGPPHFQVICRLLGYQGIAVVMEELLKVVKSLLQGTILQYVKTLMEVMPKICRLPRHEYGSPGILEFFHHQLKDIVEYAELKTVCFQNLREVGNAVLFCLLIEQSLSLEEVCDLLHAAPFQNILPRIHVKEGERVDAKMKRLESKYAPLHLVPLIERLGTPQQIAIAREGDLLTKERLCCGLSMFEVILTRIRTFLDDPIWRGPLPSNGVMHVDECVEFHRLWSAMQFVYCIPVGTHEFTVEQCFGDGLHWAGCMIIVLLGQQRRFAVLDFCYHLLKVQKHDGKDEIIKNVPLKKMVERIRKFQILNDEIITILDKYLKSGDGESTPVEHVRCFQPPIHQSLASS

Target: EGFP-tagged Sra1 (murine) (UniProt Q7TMB8)
Experiment: co-IP; GFP-TrapA beads precipitate EGFP-tagged Sra1 (EGFP alone as control) from lysates of transfected B16-F1 wild-type or Nap1 KO clone 21 cells; IP buffer 140 mM KCl, 50 mM Tris-HCl pH 7.4, 50 mM NaF, 10 mM Na4P2O7, 2 mM MgCl2, 1% Triton-X100; 1 h at 4°C; endogenous WRC subunits detected by western …

- binding: binds
B1: Hem1 (protein, UniProt Q8K1X4 1-1134)
chain: MSLTSAYQLKLAEKLTILNDRGQGVLIRMYNIKKTCSDSKSKPPFLLEKSMESCLKYINKKFPNIDVRNSTQHLGPVHREKAEIIRFLTNYYQSFVDVMEFRDHVYELLNTIDACQCHFDINLNFDFTRSYLDLIVTYTSVILLLSRIEDRRILIGMYNCAHEMLHGHSDPSFARLGQMVLEYDHPLKKLTEEFGPHTKAVSGALLSLHFLFVRRNQGAEQWRSAQLLSLISSPPAMINPANSDTMACEYLSVEVMERWIIIGFLLCHGCLNSNSQCQKLWKLCLEGSLYITLIREDVLQVHKVTEDLFSSLKGYSKRVADIKESKEHAITNSGQFHCQRRQFLRTAVKELETVLNDEPGLLGPKALFAFMALSFIRDEVTWLVRHTENVTKTKTPEDYADSSIAELLFLLEEIRALVRRHIKVIQQYHLQYLARFDVLVLSDIIQNLSVCPEEESVIMSSFVSILSSLNLKQVDNEEKFDFSGLRLDWFRLQAYTSVSKAPLHLHENPDLAKVMNLIIFHSQMLDSVEKMLVETSDLSTFCFHLRTFEKMFATTLEEPTMLRYTIAFPLICAHFVHCVHEMCPEEYPHLKNHGLHHCNSFLEDLAKQTSNCVLEICAEQRNLNEQLLPKHCATTISKAKNKKSMKQRQAPRKGEPERDKPGAESHRKNRSLVTNMDKLHLNLTELALAMNHVHSFSVFEHTIFPSEYLSSHLEARLNRAIVTLAGYNATTQEILRPSELLAGVKAYISFIQSLAQFLGADASRIVRNALLQQTQPLDSSGEQTVTTLYTNWYLESLLRQASSGAIVLSPAMQAFISLPRDGEQNFSAEEFSDISEMRALAEILGPYGMKFLSENLMWHVTSQIVELKKLVVENMDILVQIRSNFSKPELMASLLPQLTGAENVLKRMTIIGVILSFRAMAQEGLQEVFSAHCPFLMGPIECLKEFVTPDTDIKVTLSVFELACAAGVSCDIDPALVAAIANLKADNSSPEEEYKVACLLLIFLAVSLPLLATDPSSFFSIEKDGYNNNIHCLTKAIIQVSAALFTLYNKNIETHLKEFLVVASVSLLQLGQETDKLKTRNRESISLLMRLVVEESPFLTLDMLESCFPYVLLRNAYREVSRAFYLNRLPASSH
